Data on one molecule can be found in paper PMC11672271.

Results are given in words; binding and its absence hold for the method and conditions named. In cells and extracts the contact can be indirect. A yes stands for co-enrichment or nearness to the bait. Other partners may have been found.

This experiment addresses Myc-tagged STAT3 (bait of the mass spectrometry experiment), P42227. In words: affinity purification with mass spectrometry; Myc-STAT3 transfected into cells (mESC or HEK-293T), LIF-treated; c-Myc Tag IP/Co-IP kit, 10% SDS-PAGE, Coomassie, in-gel trypsin digestion of unique bands, ion-trap MS/MS. The following applies: remark: other sources report otherwise.

B1: protein kinase C delta (PKCδ), P28867 1-674 (protein)
chain: MAPFLRISFNSYELGSLQVEDEASQPFCAVKMKEALSTERGKTLVQKKPTMYPEWKTTFDAHIYEGRVIQIVLMRAAEDPVSEVTVGVSVLAERCKKNNGKAEFWLDLQPQAKVLMCVQYFLEDGDCKQSMRSEEEAKFPTMNRRGAIKQAKIHYIKNHEFIATFFGQPTFCSVCKEFVWGLNKQGYKCRQCNAAIHKKCIDKIIGRCTGTATNSRDTIFQKERFNIDMPHRFKVYNYMSPTFCDHCGSLLWGLVKQGLKCEDCGMNVHHKCREKVANLCGINQKLLAEALNQVTQRSSRKLDTTESVGIYQGFEKKPEVSGSDILDNNGTYGKIWEGSTRCTLENFTFQKVLGKGSFGKVLLAELKGKDKYFAIKCLKKDVVLIDDDVECTMVEKRVLALAWESPFLTHLICTFQTKDHLFFVMEFLNGGDLMFHIQDKGRFELYRATFYAAEIICGLQFLHSKGIIYRDLKLDNVMLDRDGHIKIADFGMCKENIFGEGRASTFCGTPDYIAPEILQGLKYSFSVDWWSFGVLLYEMLIGQSPFHGDDEDELFESIRVDTPHYPRWITKESKDIMEKLFERDPDKRLGVTGNIRIHPFFKTINWSLLEKRKVEPPFKPKVKSPSDYSNFDPEFLNEKPQLSFSDKNLIDSMDQEAFHGFSFVNPKFEQFLDI
As to B1, the binding result is recorded as “binds”.
